Source: the ROBIN nucleic acid binder screens (doi:10.1002/anie.202211358).

Oligonucleotides screened, 5′ to 3′:
T1: SAM-II riboswitch RNA pseudoknot, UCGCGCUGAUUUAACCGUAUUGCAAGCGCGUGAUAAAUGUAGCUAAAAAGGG. About 21,000 compounds screened, about 200 hits.
T2: TPP riboswitch RNA three-way junction, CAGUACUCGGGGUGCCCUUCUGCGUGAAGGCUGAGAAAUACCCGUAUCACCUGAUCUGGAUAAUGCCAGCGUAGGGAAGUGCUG. About 24,000 compounds screened, about 160 hits.
T3: PreQ1 riboswitch RNA pseudoknot, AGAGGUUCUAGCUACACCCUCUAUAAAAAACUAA. From B. subtilis. About 24,000 compounds screened, about 170 hits.

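Each compound is printed as two spots on a slide made to bind it covalently, so it has no test concentration; the read-out is fluorescence of the bound, labelled oligonucleotide. For the PreQ1, TPP and SAM-II riboswitches the laboratory earlier reported (doi:10.1038/s41467-019-09493-3) 1 µM RNA, 2 h, and a rule that included a mean Z-score above 3 (spot signal-to-noise against the whole library), a score well above that on a control array, and duplicate spots agreeing (coefficient of variation under 100). The data file gives only the calls; its cut-offs may differ, and compounds hitting several targets are kept. These are primary screening calls, not affinities; a compound without a hit may have attached poorly or may still bind in solution.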 Key: active = hit, inactive = tested without a hit. Compounds were drawn at random from those tested, without regard to their results. A dash means that no call is listed here.

Compound | T1 | T2 | T3
COc1cc2[nH]c(=O)c(CN3CCNC(C(=O)O)C3)cc2c(OC)c1OC (stereo not shown) | inactive | inactive | inactive
CCCCCCSc1nnc2nc(O)cc(N)n12 | inactive | inactive | inactive
O=C(c1ccc(CNc2c(N3CCCC3)c(=O)c2=O)cc1)N1CC=C(c2ccccc2)CC1 | - | inactive | inactive
CCCOCC1CC2(CC(C)(c3csc(Nc4ccc(C)cc4)n3)OC2=O)C(=O)O1 (stereo not shown) | inactive | inactive | inactive
CCCCc1nc(CN2CCN(Cc3ccccc3)CC(O)C2)c[nH]1 (stereo not shown) | inactive | inactive | inactive
O=C(O)CCC(=O)OCCN(Cc1ccc(Oc2ccc([N+](=O)[O-])cc2)cc1)C(=O)C(Cl)Cl | inactive | inactive | inactive
CCN(Cc1ccccc1)C(=O)C1CCC(CNc2c(N3CCOCC3)c(=O)c2=O)CC1 (stereo not shown) | - | inactive | inactive
COc1cccc([C@@H]2C[C@H](c3ccc(C)cc3)n3nc(N)nc3N2)c1 | inactive | inactive | inactive
C=C(C)CC1C=CCC(CC(=C)C)N1CC(O)C(F)(F)C(F)(F)C(F)(F)F (stereo not shown) | inactive | inactive | inactive
CCOC(=O)c1cnc2c(-c3ccccc3)c(COC)nn2c1N | inactive | inactive | inactive
CC(C)=CCCC(C)=CCNCCCc1ccncc1 | inactive | inactive | inactive
Cc1onc(-c2c(Cl)cccc2Cl)c1CN1C[C@@H]2CC[C@H](CC1=O)N2 | inactive | inactive | inactive
COc1ccc(-c2cnc3c(-c4ccc(OC)c(OC)c4)cnn3c2N)cc1OC | inactive | inactive | inactive
OCc1cc(-c2ccc3ccccc3n2)ccc1F | inactive | inactive | inactive
Cc1nnc2n1CCN(C(=O)C1CC3(CCNCC3)CN1C)CC2 (stereo not shown) | inactive | inactive | inactive
Clc1ccc(-c2noc3ncnc(Nc4ccc5c(c4)OCCO5)c23)cc1 | inactive | inactive | inactive
COCCN(C)C[C@@H]1CN(C(=O)C2c3ccccc3-c3ccccc32)C[C@@H]1CO | inactive | inactive | inactive
Nc1c(C(=O)NCCc2ccccc2)nnn1Cc1cccc(F)c1 | inactive | inactive | inactive
O=C(c1ccccc1C1CCNC1)N1CCC(O)(Cn2ccnc2)CC1 (stereo not shown) | inactive | inactive | inactive
Cc1ccc(C)c(Nc2c(-c3ccc(O)cc3)nc3ncccn23)c1 | inactive | inactive | inactive
C[C@H](CCC(=O)O)[C@H]1CC[C@H]2[C@H]3[C@@H](CC[C@]12C)[C@@]1(C)CC[C@@H](O)C[C@H]1C[C@@H]3O | inactive | inactive | inactive
CC(Cc1cccc(F)c1)NCCc1nc2ccccc2[nH]1 (stereo not shown) | inactive | inactive | inactive
CC(=O)Nc1ccc(-c2nccn2-c2ccccc2CCO)cc1 | inactive | inactive | inactive
CCOC(=O)N1CCN(CC(O)COc2ccc(C(C)=O)cc2)CC1 (stereo not shown) | inactive | inactive | inactive
Cc1ccc(Nc2nccc(N(C)c3ccc4c(C)n(C)nc4c3)n2)cc1S(N)(=O)=O | inactive | inactive | inactive
Nc1ccc(C=CC(=O)c2cccs2)cc1 | inactive | inactive | inactive
Nc1nc(OCc2ccccc2)c2[nH]cnc2n1 | inactive | inactive | inactive
Nc1c(-c2nc(-c3ccccc3)no2)nnn1-c1ccc(F)cc1F | - | inactive | inactive
O=C(c1ccc(C2CCCO2)s1)N1Cc2cnn(CCO)c2C1 (stereo not shown) | inactive | inactive | inactive
C=CCNC(=S)NCC=C | inactive | inactive | inactive
Cn1c(=O)c2c(-c3ccccc3Br)n(-c3ccc4c(c3)nc(CO)n4C)cc2n(C)c1=O | - | inactive | inactive
N[C@H]1CN(CCCn2cnnn2)C[C@@H]1C1CC1 | inactive | inactive | inactive
CN1C[C@@H](N)C[C@H]1C(=O)NCc1ccc2c(c1)CCCC2 | inactive | inactive | inactive
O=C(NCCO)c1nc(-c2ccccc2)n(-c2ccccc2Cl)n1 | - | inactive | inactive
CC(C)c1n[nH]c2c1C1(CCN(Cc3ccccc3)CC1)C(C#N)=C(N)O2 | inactive | inactive | inactive
c1cc(CCNC2CCOC3(CCOCC3)C2)ccn1 (stereo not shown) | inactive | inactive | inactive
COC(=O)c1c(N)sc2c1CCc1ccccc1-2 | inactive | inactive | inactive
CCCc1ccc(CN2CC[C@@H](NC(=O)c3ccncc3)[C@H](O)C2)o1 | inactive | inactive | inactive
CNCCN1C(=O)CC[C@H]2CN(CC=Cc3ccc(OC)cc3)CC[C@H]21 | inactive | inactive | inactive
O=[N+]([O-])C1C(c2ccccc2)C12c1ccccc1-c1ccccc12 (stereo not shown) | inactive | inactive | inactive
Cc1cc(NCc2ccccc2)n2nc(C)c(-c3ccc(F)cc3)c2n1 | - | inactive | inactive
COc1cccc(C2c3c(-c4ccccc4O)n[nH]c3C(=O)N2CCO)c1 (stereo not shown) | - | inactive | inactive
CNCc1cc(-c2ccccc2)on1 | inactive | inactive | inactive
Cn1c(=O)c2c(c3ccccc31)OC(N)=C(C#N)C2c1cccnc1 (stereo not shown) | inactive | inactive | inactive
Cc1nnc2c3ccccc3nc(Nc3ccc(Br)cc3)n12 | - | inactive | inactive
Cc1cc(Nc2ccc(C(=O)N3CCN(c4ccccc4)CC3)cc2)n2ncnc2n1 | inactive | inactive | inactive
Cc1ccccc1-c1nc(S(=O)(=O)c2ccccc2)c(NC2CC2)o1 | - | inactive | inactive
c1cc2c(c(-c3cncnc3)c1)CCNC2 | inactive | inactive | inactive
Nc1nc(-c2nn(Cc3ccccc3F)c3ncccc23)nc(N)c1N1CCOCC1 | inactive | inactive | inactive
COc1ccc(OC)c(N2CC(=O)C(c3nc4ccccc4n3C)=C2N)c1 | - | inactive | inactive

6 of the entries, repeated:

Compound	T1	T2	T3
CN1C[C@@H](N)C[C@H]1C(=O)NCc1ccc2c(c1)CCCC2	inactive	inactive	inactive
c1cc2c(c(-c3cncnc3)c1)CCNC2	inactive	inactive	inactive
CC(C)c1n[nH]c2c1C1(CCN(Cc3ccccc3)CC1)C(C#N)=C(N)O2	inactive	inactive	inactive
COc1ccc(OC)c(N2CC(=O)C(c3nc4ccccc4n3C)=C2N)c1	-	inactive	inactive
CC(C)=CCCC(C)=CCNCCCc1ccncc1	inactive	inactive	inactive
CCCc1ccc(CN2CC[C@@H](NC(=O)c3ccncc3)[C@H](O)C2)o1	inactive	inactive	inactive